Results are given in words; binding and its absence hold for the method and conditions named. Binding seen in cells or lysates may run through a third protein. Binding calls can cover weak binding; strength is not graded here.
Target: HA-tagged SPOP (WT) (UniProt O43791)
Assay: co-IP; 293T cells transfected 24 h with SPOP WT and FLAG-c-Myc or ΔSBC1/ΔSBC2; Bortezomib (250 nM) for 6 h; total cell lysates; IP with anti-FLAG or anti-SPOP antibodies

Chains of the proteins cited; added tags and fusions are not shown.
UniProt O43791: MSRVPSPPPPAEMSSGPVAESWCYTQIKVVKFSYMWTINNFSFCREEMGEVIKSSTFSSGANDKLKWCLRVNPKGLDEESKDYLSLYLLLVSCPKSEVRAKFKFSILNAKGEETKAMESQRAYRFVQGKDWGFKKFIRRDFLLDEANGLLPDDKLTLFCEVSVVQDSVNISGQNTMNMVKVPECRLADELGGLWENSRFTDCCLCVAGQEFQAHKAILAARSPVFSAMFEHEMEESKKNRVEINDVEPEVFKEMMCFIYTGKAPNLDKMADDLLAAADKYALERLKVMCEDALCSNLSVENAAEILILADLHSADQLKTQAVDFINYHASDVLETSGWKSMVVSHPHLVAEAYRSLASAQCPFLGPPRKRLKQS

“FLAG-c-Myc mutated at SBC1 (ΔSBC1) (from UniProt P01106-2)” was tested, and the binding was “no binding”.

For “FLAG-c-Myc mutated at SBC2 (ΔSBC2) (from UniProt P01106-2)”, the binding was “binds weakly”.

From publication PMC7586679
